The campaign covered roughly 1,200 compounds. About 15 (1%) were called active. Another 7% or so got no clear call; they are omitted. Calls follow the shape of the dose curve; as a rule, active = well fitted activation curve with a large enough effect; inconclusive = small, poorly fitted or top-dose-only effect; inactive = flat fitted curve, though single readings scatter. The list shows a part of the results.
Each compound was assayed against Beta-2 adrenergic receptor (Homo sapiens) (UniProt P07550) (assay: qHTS assay of beta-arrestin-biased ligands of beta2-adrenergic receptor: Hit Validation). Conditions: cell-based beta-arrestin recruitment to beta2AR; Potency: activation; series mostly up to 46.1 µM; activation: at the top concentration.
Procedure, shortened: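 Luminescent tTA-driven luciferase reporter in Tango cells, read after 18 h at 37 °C with compound and 15 min with substrate mix (0.15 mM ATP, 0.44 mM D-luciferin, final). Concentration-response fits categorized by curve class.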
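Also: plate controls were DMSO for no effect and maximal isoproterenol or metaproterenol response for full effect.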

activation, inactive:
O=c1[nH]c(CSc2cccc[n+]2[O-])nc2ccccc12 -1.21%, O=c1c2cn[nH]c2nc(SCc2ccccc2F)n1-c1ccc(Br)cc1 4.7%, CN1CCN(C(c2cccnc2)c2ccc3cccnc3c2O)CC1 (stereo not given) -0.879%, COc1ccc(C2CC3(CC(C)(C)NC(=S)N3)Oc3cc(O)cc(C)c32)cc1 (stereo not given) 3.78%, C=CCn1c(O)c(N=NC(=S)Nc2ccccc2F)c2cc(S(=O)(=O)N3CCOCC3)ccc21 -3.66%, CC(=O)c1ccc(NC(=O)C(C)OC(=O)C2CC(=O)N(c3ccc4c(c3)OCCO4)C2)cc1 (stereo not given) -3.38%, Cc1ccc(C)c(NC(=S)N=Nc2c(O)n(C)c3ccc(S(=O)(=O)N4CCOCC4)cc23)c1 0.069%, Oc1ccc(NCc2ccc(OCc3ccccc3)cc2)cc1 -0.106%, CCCCNC(=S)N/N=C/c1cccc(OCC)c1O -2.34%, COc1cccc(/C=N/Nc2nc(-c3cccnc3)nc3ccccc23)c1 -1.3%, O=C(Oc1cccc2cccnc12)c1ccc2c(c1)OCCO2 -2.9%, COc1ccccc1NS(=O)(=O)c1ccc(NC(=O)Cc2cccs2)cc1 -1.57%, CN(C(=O)CSc1ccncc1)C1CCCN(Cc2ccccc2F)C1 (stereo not given) -2.18%, Oc1ccc(NCc2cccc(OCc3ccc(F)cc3)c2)cc1 -1.88%, CCN(CC)CCCNC(=O)CCC(=O)NNc1nc2ccccc2c2nc(C)nn12 -1.51%, O=[N+]([O-])c1ccc(OCC(O)CN(C2CCCCC2)C2CCCCC2)cc1 (stereo not given) -0.892%, COc1cnc(-c2ccccn2)nc1Sc1ccccc1Cl -3.15%, O=C(Oc1c(CN2CCOCC2)cc(Cl)c2cccnc12)c1ccccc1Br 7.38%, CC(C)NC(=S)NN=C1CCC(c2ccccc2)CC1 (stereo not given) -1.07%, Cc1ccnc(NC(=O)c2c(-c3ccccc3Cl)noc2C)c1 -2.92%, Cc1nn2c(c1-c1ccccc1)N=C(c1ccco1)CC2c1ccccc1 (stereo not given) 2.5%, CCNc1nc(NC(C)CC)nc(ON=C(C)C)n1 (stereo not given) -1.44%, O=C(CN1CCN(Cc2ccccc2)CC1)c1ccc(Br)cc1 -2.66%, CCNC(=S)N/N=C/c1sccc1C -3.21%, Cc1ccc(NC(=S)NC(NC(=O)c2ccco2)C(Cl)(Cl)Cl)cc1 (stereo not given) 6.67%, CC(=O)Nc1nonc1NC(=O)CSc1nc2ccccc2o1 -7.81%, O=C(CSc1cccc[n+]1[O-])CSc1cccc[n+]1[O-] -4.27%, Cc1cc(C)cc(-n2c3nc4ccccc4nc3c3c(=O)n(Cc4ccco4)cnc32)c1 -1.95%, CCN(CC(=O)Nc1ccccc1SC)Cc1nc2ccccc2c(=O)[nH]1 -4.21%, CCCCc1nc(SCC(=O)N2CCOCC2)c2c(=O)n(C)c(=O)n(C)c2n1 -5.25%, Cc1onc(-c2c(F)cccc2Cl)c1C(=O)N1CCSCC1 -6.47%, CC1=NN(C(N)=S)C(=O)C1N=Nc1cc(Cl)ccc1Cl (stereo not given) -0.245%, Cc1cc(C)nc(-n2nc(C)cc2NC(=O)CN2CCC(C)CC2)n1 -2.72%, CCOc1ccc2c(c1)C(C)=CC(C)(C)N2C(=O)Nc1ccccc1F -1.04%, CN1CCC(=C2c3ccccc3C=Cc3ccccc32)CC1 -2.63%, Cc1oc(-c2ccccc2Cl)nc1CN1CCCCC1c1cccnc1 (stereo not given) -3.35%, COc1ccc(C(=O)NCC(=O)N/N=C/c2ccc([N+](=O)[O-])o2)cc1OC -2.91%, CCOC(=O)c1ccc(NC(=S)NNC(C)(C)C)cc1 -2.78%, CCOc1ccc2nc(N3C(=O)CNC3=S)sc2c1 -3.41%, S=C(N/N=C/c1ccc(Cl)c(Cl)c1)Nc1ccccc1Cl -4.07%, Cc1ccc(OCC(=O)N/N=C/C=C/c2ccco2)c(Br)c1 -1.89%, CCOC(=O)c1cnc(Nc2nc3ccccc3o2)nc1CSC(=S)N(CC)CC -0.875%, COc1ccc(NC(=O)CSc2nc3c(c(=O)n2-c2ccccc2)SCC3)c(OC)c1 -2.06%, Cc1cccc(NC(=O)CSc2cccc3cccnc23)c1C -3.45%, CN(C)c1cccc(C(=O)OCC(=O)Nc2nccs2)c1 -3.62%, COCCNC(=S)N/N=C(\C)c1cccc(C(F)(F)F)c1 -2.84%, Cc1nnc(NC(=O)c2ccc3ccccc3c2)o1 -1.26%, Cc1nc2ccccc2c(=O)n1N -1.37%, CC1=C(C(=O)N2CCOCC2)C(c2ccc(Cl)cc2)NC(=S)N1 (stereo not given) -1.53%, C=CCNC(=S)Nc1cc(C)ccn1 -3.23%, S=C1SCN(Cc2ccco2)CN1Cc1ccco1 -4.11%, O=C(NCCN1CCOCC1)c1cc(Br)ccc1Cl -2.79%, COc1nc(OC)nc(Oc2ccc([N+](=O)[O-])cc2Cl)n1 -3%, Fc1cccc(F)c1/C=N/NC(=S)Nc1cccnc1 0.332%, CNS(=O)(=O)c1cc(NC(=O)c2cnc(SC)n2-c2ccccc2)ccc1C 5.19%, CC1S/C(=N/N=C2CCCCC2)NC1=O (stereo not given) -1.28%, COc1ccccc1/C(C)=N/NC(=S)NCc1ccccc1 -1.72%, COc1cc(OC)c(NS(=O)(=O)c2cc(C(=O)OC(C)C(=O)NC3CC3)c(Cl)cc2Cl)cc1Cl (stereo not given) -0.815%, COCCNC(=S)N/N=C(\C)c1ccc(Cl)s1 -2.92%, CCOC(=O)c1ccccc1NC1c2ccccc2C(=O)N1C1CCN(C(=O)OCC)CC1 (stereo not given) 2.96%, O=C(O)/C=C/c1nc(-c2ccccc2)n2ccccc12 -2.97%, Cc1cc(NC(=O)CSc2nnnn2-c2ccccc2C)no1 -3.25%, C=CCNC(=S)NNC(=O)COc1ccc(Cl)cc1Cl -4.69%, S=C(NCc1ccccn1)Nc1ccc(Cl)c(Cl)c1 -3.46%, COc1ccc(CCN(C)CCCC(C#N)(c2cc(OC)c(OC)c(OC)c2)C(C)C)cc1OC (stereo not given) 7.14%, Cc1ccc(CONC(=O)c2ccccc2Cl)cc1 -3.35%, CN(C)c1ccc(NC(=O)Oc2ccccc2)cc1 -1.95%, Cc1ccc2nc(NC(=O)COC(=O)c3ccc(Br)o3)sc2c1 -1.88%, CCCCOc1ccc(NC(=O)CSc2cccc3cccnc23)cc1 -0.82%, COC(=O)c1scc(C)c1S(=O)(=O)Nc1ccc(C)cc1 -3.22%, C=CCOc1ccc2ccccc2c1CNn1c(C)n[nH]c1=S -2.87%, CC1CCCCN1C(=S)NC(=O)c1cccs1 (stereo not given) -1.73%, CS/C(N)=N/N=C/c1cc(Br)cc(Br)c1O -2.45%, S=C(NCc1ccccc1)Nc1ccc2ccccc2c1 -2.09%, Cc1ccc(CNc2ccc(N3C(=O)CCCC3=O)cc2[N+](=O)[O-])cc1 -3.89%

Source: PubChem BioAssay AID588463 (National Center for Advancing Translational Sciences (NCATS), 2011)
